These results are taken from PMC11235583, “Structural basis of odor sensing by insect heteromeric odorant receptors” (Science (New York, N.Y.), 2024).

The assay concerns the target Aedes aegypti odorant receptor OR10 (Aedes aegypti). Description: SEC; complexes purified from HEK293 cells transfected with varying ratios of AaOR10 to Orco DNA; assessed by size exclusion chromatography and SDS-PAGE.

These are yes or no findings as the source states them, for the method shown. Binding can be weak; no strength is given.

B1: Apocrypta bakeri odorant receptor co-receptor Orco (receptor, UniProt B0FAQ4 1-474)
chain: MKFKHQGLVADLLPNIRVMQGVGHFMFNYYSEGKKFPHRIYCIVTLLLLLLQYGMMAVNLMMESDDVDDLTANTITMLFFLHPIVKMIYFPVRSKIFYKTLAIWNNPNSHPLFAESNARFHALAITKMRRLLFCVAGATIFSVISWTGITFIEDSVKRITDPETNETTIIPIPRLMIRTFYPFNAMSGAGHVFALIYQFYYLVISMAVSNSLDVLFCSWLLFACEQLQHLKAIMKPLMELSATLDTVVPNSGELFKAGSADHLRESQGVQPSGNGDNVLDVDLRGIYSNRQDFTATFRPTAGTTFNGGVGPNGLTKKQEMLVRSAIKYWVERHKHVVRLVTAVGDAYGVALLLHMLTTTITLTLLAYQATKVNGVNVYAATVIGYLLYTLGQVFLFCIFGNRLIEESSSVMEAAYSCHWYDGSEEAKTFVQIVCQQCQKAMSISGAKFFTVSLDLFASVLGAVVTYFMVLVQLK
For B1, the binding result is recorded as “binds”.
